From paper PMC3146538 come the findings set out here.

Sequences of proteins named here, by UniProt entry; tags and fusion partners are left off. A change or cut given only in a name is not applied to a line headed by its entry. A line that says so, or that is headed by a name, gives the form on record, which may keep a tag or linker. Residues count along the entry.
FLAG-TSPX[Tail-L] (Q9H2G4, residues 397-693): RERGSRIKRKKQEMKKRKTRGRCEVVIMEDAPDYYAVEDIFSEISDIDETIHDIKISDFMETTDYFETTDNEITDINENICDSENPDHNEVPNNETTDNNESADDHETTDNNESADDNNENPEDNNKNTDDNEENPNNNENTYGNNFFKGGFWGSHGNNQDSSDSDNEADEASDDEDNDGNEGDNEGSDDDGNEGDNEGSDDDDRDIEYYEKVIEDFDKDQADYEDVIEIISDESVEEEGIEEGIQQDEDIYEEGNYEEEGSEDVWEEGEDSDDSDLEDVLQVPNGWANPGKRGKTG
FLAG-tagged TSPX[Δ26–108] (Q9H2G4, form named): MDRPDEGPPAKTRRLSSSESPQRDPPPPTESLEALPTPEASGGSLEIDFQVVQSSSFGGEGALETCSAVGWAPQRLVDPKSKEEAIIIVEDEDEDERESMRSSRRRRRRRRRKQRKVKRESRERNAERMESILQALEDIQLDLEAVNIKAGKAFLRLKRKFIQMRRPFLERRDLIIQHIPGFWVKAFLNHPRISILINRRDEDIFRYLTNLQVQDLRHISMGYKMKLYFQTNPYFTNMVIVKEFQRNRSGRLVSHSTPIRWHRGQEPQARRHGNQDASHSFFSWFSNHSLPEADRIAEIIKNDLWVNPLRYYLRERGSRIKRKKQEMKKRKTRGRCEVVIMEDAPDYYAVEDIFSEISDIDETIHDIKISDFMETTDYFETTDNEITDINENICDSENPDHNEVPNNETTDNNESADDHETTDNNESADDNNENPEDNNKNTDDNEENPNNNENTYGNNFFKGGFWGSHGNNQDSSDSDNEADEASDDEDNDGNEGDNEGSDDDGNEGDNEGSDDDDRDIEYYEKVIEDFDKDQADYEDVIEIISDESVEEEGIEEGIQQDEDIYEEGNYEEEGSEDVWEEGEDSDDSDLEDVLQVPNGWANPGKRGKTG
UniProt P03165: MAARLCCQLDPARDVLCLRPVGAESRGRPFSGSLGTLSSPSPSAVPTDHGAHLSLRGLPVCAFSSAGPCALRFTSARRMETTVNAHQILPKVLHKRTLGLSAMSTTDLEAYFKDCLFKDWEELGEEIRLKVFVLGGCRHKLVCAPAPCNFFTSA

The target in test [1] is FLAG-TSPX[Tail-L] (human) (UniProt Q9H2G4). As to the kind of experiment: co-IP.
Test [2] deals with FLAG-tagged TSPX[Δ26–108] (human) (UniProt Q9H2G4). As to the kind of experiment: co-IP.

These are yes or no findings as the source states them, for the method shown. In cells and extracts the contact can be indirect. Some entries that bind do so weakly or less than the wild type.

Turning to “Hemagglutinin (HA) epitope-tagged HBx (from UniProt P03165 1-154)”, the binding entry in test [1] and in test [2] was “binds” each time.
